Data taken from US8232063B2, “H+-gated ion channel” (University of Utah Research Foundation, priority 2004, dated 2012).
Values joined by “and” are separate entries in the source; they are usually repeats but may differ in a detail not shown here. Equal values may be shown once.

Test system: PBO-5/PBO-8 receptors
Experiment: Two-electrode voltage clamp of Xenopus oocytes coinjected with PBO-5 and PBO-8 cRNA
Type: cell-based, C. elegans
Method: Capped RNA was prepared using the T7 mMessage mMachine kit (Ambion). Xenopus oocytes were collected and coinjected with 25 ng each of PBO-5 and PBO-8 cRNA and two-electrode voltage clamp recordings were performed 3-5 days post-injection. The standard bath solution for dose-response and control I-V experiments was Ringer's (in mM): 115 NaCl, 1.8 […], 10 Bis-Tris Propane (pH 7.4 Acetic acid). For dose-response experiments, each oocyte was subjected to a 5 second application of test pH (7.0 - 5.0) with 2 minutes of pH 7.4 wash between test applications.
Ion selectivity experiments: All points are responses to test pulse applications of pH 6.8 for 5 seconds. The reversal potential of PBO-5/PBO-8 expressing oocytes were first determined in standard Ringer's (in mM): 115 NaCl, 1.0 CaCl2, 10 Bis-Tris Propane (pH 7.4, acetic acid). For chloride permeability a simplified solution was used, chloride-free (in mM): 115 Na^+ gluconate, 1.0 CaCl2, 10 Bis-Tris Propane (pH 7.4 acetic acid). For Na^+ permeability a simplified solution was used, Na^+ free (in mM): 115 mM N-methyl D-glucamine (NMDG), 1.8 CaCl2, 10 Bis-Tris Propane (pH 7.4 acetic acid)). All solutions were brought to pH by addition of NaOH or acetic acid. To determine K^+ permeability, I-V experiments were performed in K^+ Ringer's (in mM): 115 K^+-gluconate, 1.0 CaCl2, 10 Bis-Tris Propane (pH=7.4 acetic acid). To determine Ca^2+ permeability extracellular Na^+ was lowered to 90 mM and extracellular CaCl2 was increased to 3 mM and 10 mM, compare to 1 mM Ca^2+ control. To better resolve calcium permeability, the Na^+ free solution was used except CaCl2 was increased ten-fold, 18 mM CaCl2 (in mM): 115 NMDG, 18 CaCl2, 10 Bis-Tris Propane, (pH 7.4 acetic acid). Osmolarity was measured for each solution and was maintained at 240 mOsm by the addition of sucrose. All recordings were done at room temperature. We used 3M KCl filled electrodes with a resistance between 1-3 MΩ. […]

Compound: [1H+] [H^+]
- Hill coefficient (1 mM Ca2+ control conditions): 6
- Hill coefficient (10 mM Ca2+ test conditions): 4
- Hill coefficient (voltage-clamped at -60 mV, test pH 5 seconds, standard Ringer's, n=18): 9+0.66 and 9±0.66
